Measurements published in patent US20220074941A1, “HSP90 COMBINATION THERAPY” (Sloan-Kettering Institute for Cancer Research, priority 2011, published 2022).

Columns and labels:
[1] = system: Hsp90 complexes in K562 cell extract; assay: Nano-LC-MS/MS of PU-beads pull-downs; format: binding; settings: protein identified in PU-beads pull-down of K562 extract, QSTAR-Elite QTof MS
Summary of the method: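 Proteins were identified by data-dependent nano LC-MS/MS (QTof, ESI) and Mascot searching (p<0.05), then reported as spectral counts and coverage via Scaffold. Inputs were PU-bead versus control-bead pull-downs from lysate pre-cleared with control beads overnight at 4 °C, eluted by boiling in 2% SDS.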

[2] = system: Hsp90 complexes in Mia-PaCa-2 cell extract; assay: Nano-LC-MS/MS of PU-beads pull-downs; format: binding, human; settings: protein identified in PU-beads pull-down of Mia-Paca 2 extract; QSTAR-Elite QTof MS
Protocol: Lysates prepared as mentioned above were first pre-cleaned by incubation with control beads overnight at 4° C. […] Beads were washed with lysis buffer, proteins eluted by boiling in 2% SDS, separated on a denaturing gel and Coomassie stained according to manufacturer's procedure (Biorad). […] Analyses of the batch purified pools were done using a QSTAR-Elite hybrid quadrupole time-of-flight mass spectrometer (QTof MS) (AB/MDS Sciex), equipped with a nano spray ion source. Peptide mixtures (in 20 μL) are loaded onto a trapping guard column (0.3×5-mm PepMap C18 100 cartridge from LC Packings) using an Eksigent nano MDLC system (Eksigent Technologies, Inc) at a flow rate of 20 μL/min. […] Electrospray ionization (ESI) needle voltage was set at about 1800 V. The mass analyzer is operated in automatic, data-dependent MS/MS acquisition mode, with the threshold set to 10 counts per second of doubly or triply charged precursor ions selected for fragmentation scans. Survey scans of 0.25 sec are recorded from 400 to 1800 amu; up to 3 MS/MS scans are then collected sequentially for the selected precursor ions, recording from 100 to 1800 amu. The collision energy is automatically adjusted in accordance with the m/z value of the precursor ions selected for MS/MS. Selected precursor ions are excluded from repeated selection for 60 sec after the end of the corresponding fragmentation duty cycle. […] One missed tryptic cleavage site was allowed, precursor ion mass tolerance=0.4 Da fragment ion mass tolerance=0.4 Da, protein modifications were allowed for Met-oxide, Cys-acrylamide and N-terminal acetylation. MudPit scoring was typically applied with ‘require bold red’ activated, and using significance threshold score p<0.05. Unique peptide counts (or ‘spectral counts’) and percent sequence coverages for all identified proteins were exported to Scaffold Proteome Software (version 2_06_01, www.proteomesoftware.com) for further bioinformatic analysis (Table 5a). Using output from Mascot, Scaffold validates, organizes, and interprets mass spectrometry data, allowing more easily to manage large amounts of data, to compare samples, and to search for protein modifications.

Row | Substance | Number of Assigned Spectra, K562 Prep 1 [1] | Number of Assigned Spectra, K562 Prep 2 [1] | Number of Assigned Spectra, Mia-Paca 2 [2]
1 | PI4KA | 15 | 4 | 0
2 | KHDRBS1 | 8 | 15 | 2
3 | TBK1 | 10 | 0 | 0
4 | HSP90AB1 | 300 | 1208 | 578
5 | RNF213 | 12 | 49 | 16
6 | ILF2 | 8 | 11 | 18
7 | CTSZ | 1 | 0 | 0
8 | ABL1 | 3 | 4 | 0
9 | TNKS1BP1 | 23 | 79 | 12
10 | SAR1A | 3 | 1 | 1
11 | PIK3R4; VPS15 | 8 | 9 | 4
12 | ATG2A | 2 | 3 | 0
13 | DOCK7 | 2 | 0 | 0
14 | PLK1 | 3 | 0 | 0
15 | TFRC | 25 | 7 | 0
16 | TP63 | 0 | 0 | 3
17 | ATM | 2 | 4 | 1
18 | NCOR1 | 11 | 13 | 1
19 | CDK12 | 0 | 0 | 3
20 | CDK9 | 3 | 0 | 1
21 | STAT3 | 15 | 4 | 6
22 | PTPN23 | 8 | 8 | 2
23 | hVps34; PIK3C3 | 5 | 1 | 1
24 | Sin1; MAPKAP1 | 2 | 0 | 0
25 | ARAF | 2 | 0 | 1
26 | HDAC6 | 4 | 6 | 2
27 | PRMT6 | 2 | 0 | 0
28 | SMG1 | 1 | 9 | 0
29 | YWHAE | 13 | 1 | 13
30 | PPP2R5E | 0 | 0 | 2
